The experiment deals with GST-Med19 ΔCORE (Drosophila) (UniProt Q9VVL6). Briefly: pull-down.

The chains behind the UniProt entries cited, without tags or fusion partners. Where a name states a change or a piece, a line headed by the entry shows the natural chain unless it says otherwise. Residues count along the entry.
UniProt Q9VVL6: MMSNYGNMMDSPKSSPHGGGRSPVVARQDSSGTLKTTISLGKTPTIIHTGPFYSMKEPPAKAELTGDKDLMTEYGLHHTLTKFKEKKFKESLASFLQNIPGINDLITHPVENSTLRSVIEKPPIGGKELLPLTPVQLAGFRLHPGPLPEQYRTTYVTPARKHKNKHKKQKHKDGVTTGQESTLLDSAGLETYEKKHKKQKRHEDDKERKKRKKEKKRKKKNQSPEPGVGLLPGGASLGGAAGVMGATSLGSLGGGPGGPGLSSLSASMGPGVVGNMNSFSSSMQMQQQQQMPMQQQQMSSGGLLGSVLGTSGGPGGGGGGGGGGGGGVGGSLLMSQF
UniProt P52168, residues 1-291: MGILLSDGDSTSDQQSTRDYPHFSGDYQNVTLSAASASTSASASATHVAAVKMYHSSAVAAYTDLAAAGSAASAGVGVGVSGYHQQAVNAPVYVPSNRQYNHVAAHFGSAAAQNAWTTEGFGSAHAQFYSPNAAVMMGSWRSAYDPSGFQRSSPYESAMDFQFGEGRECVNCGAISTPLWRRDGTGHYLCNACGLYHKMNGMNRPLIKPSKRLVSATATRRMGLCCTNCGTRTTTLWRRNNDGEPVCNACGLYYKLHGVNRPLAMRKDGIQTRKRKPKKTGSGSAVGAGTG

Results are given in words; binding and its absence hold for the method and conditions named. Binding seen in cells or lysates may run through a third protein. Binding can be weak; no strength is given.

“Pnr 1-291 HA tagged form (from UniProt P52168 1-291) (domain or fragment)”: the binding entry is recorded as “binds”.
